{
  "source": "patent US9802897B2",
  "about": "“Amidopyridinol derivative or pharmaceutically acceptable salt thereof and pharmaceutical composition comprising same as active component” (Research Cooperation Foundation of Yeungnam University, priority 2013, dated 2017)",
  "tested_on": "MDA-MB-231 cells",
  "assay": "Transwell invasion assay of MDA-MB-231 breast cancer cells",
  "format": "cell-based",
  "conditions": "cathepsin inhibitors vs cells not treated with inhibitors",
  "procedure": "The invasion assay was performed by using the transwell insert (BD FALCON, Bedford, USA) equipped with a 8 μm pore-sized filter. An upper part of the transwell insert filter was coated with 20 μl of matrigel (1 mg/ml) while a bottom part of the same was coated with 30 μl of type I collagen (0.5 mg/ml). The MDA-MB-231 cells (5×10^5 cells/100 μl) were added to the insert chamber, and then, each inhibitor was also added thereto. To induce invasion of the cells, a medium supplemented with 5% FBS was added to each well of the bottom chamber to allow a reaction at a temperature of 37° C. in a cell incubator. 18 hours later, the cells remained after removing the solution in the insert chamber were removed by using a cotton swab, whereas cells at the bottom of the membrane were fixed with methanol and stained with hematoxylin and eosin. The cells present at the membrane were observed through a microscope, and the number of the cells was counted in the selected 5 fields at the resolution of 200×.\nAccording to the same manner as in Experimental Example 7, inhibitory effects of the amidopyridinol derivatives synthesized in Examples above on invasion of breast cancer cells, e.g., MDA-MB-231, were reviewed. […]",
  "note": "For at least one compound, name, drawing or mass did not settle the structure.",
  "data": [
    {"compound": "CC(C)(F)C[C@H](N[C@@H](c1ccc(-c2ccc(S(C)(=O)=O)cc2)cc1)C(F)(F)F)C(=O)NC1(C#N)CC1", "note": "[Odanacatib]", "values": [
      {"measurement": "invasion of MDA-MB-231 cells (in words)", "result": "decreased invasion of the cells"}
    ]}
  ]
}
